For test [1], the target named is T1, Atac2-V5 (Mus musculus) (UniProt Q8CID0).
T1 sequence: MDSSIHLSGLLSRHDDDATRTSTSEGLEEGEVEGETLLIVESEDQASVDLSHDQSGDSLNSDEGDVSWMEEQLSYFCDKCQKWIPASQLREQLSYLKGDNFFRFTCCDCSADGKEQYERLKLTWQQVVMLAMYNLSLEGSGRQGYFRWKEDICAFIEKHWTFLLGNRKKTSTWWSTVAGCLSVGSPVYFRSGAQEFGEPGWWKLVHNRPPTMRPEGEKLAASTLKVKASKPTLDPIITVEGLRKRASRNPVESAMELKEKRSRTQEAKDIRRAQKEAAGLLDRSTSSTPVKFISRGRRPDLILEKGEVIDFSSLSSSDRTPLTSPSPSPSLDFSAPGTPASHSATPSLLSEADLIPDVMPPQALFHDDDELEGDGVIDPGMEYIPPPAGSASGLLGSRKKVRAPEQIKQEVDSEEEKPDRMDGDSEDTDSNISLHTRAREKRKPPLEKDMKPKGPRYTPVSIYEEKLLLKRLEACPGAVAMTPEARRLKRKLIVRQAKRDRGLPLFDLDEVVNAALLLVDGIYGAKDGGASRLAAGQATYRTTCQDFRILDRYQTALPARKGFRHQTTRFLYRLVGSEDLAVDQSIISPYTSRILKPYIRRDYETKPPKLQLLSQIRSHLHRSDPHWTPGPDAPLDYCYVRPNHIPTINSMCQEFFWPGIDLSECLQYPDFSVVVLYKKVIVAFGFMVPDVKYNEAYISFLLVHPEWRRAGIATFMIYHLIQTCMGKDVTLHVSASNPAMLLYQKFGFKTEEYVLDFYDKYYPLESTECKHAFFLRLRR
The test can be described thus: co-IP; NIH3T3 lysates (NP-40 lysis buffer with 20 mM N-ethylmaleimide), immunoprecipitation of tagged Atac2 (anti-V5), denatured, SDS-PAGE and Western blot with anti-V5 and anti-Myc; SUMO seen in upshifted bands (covalent conjugate). (In general: A western blot detects proteins with antibodies after separation by electrophoresis.)

Chains of the proteins cited; added tags and fusions are not shown. Lines headed by an entry give the natural chain unless they say otherwise; changes in a name come on top.
UniProt P61956: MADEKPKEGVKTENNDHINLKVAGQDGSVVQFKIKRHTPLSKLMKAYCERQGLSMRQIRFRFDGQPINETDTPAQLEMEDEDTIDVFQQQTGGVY

Test [2] has as its target VN-SUMO2 (human) (UniProt P61956). The test can be described thus: split reporter; split Venus (VN 1-158 on SUMO2, VC 159-240 on the partner) in living NIH3T3 cells stably expressing VN-SUMO2, partner co-expressed; confocal fluorescence microscopy; read by the paper as SUMOylation (covalent).

Results are given in words; binding and its absence hold for the method and conditions named. Binding seen in cells or lysates may run through a third protein. Binding calls can cover weak binding; strength is not graded here. For some assays here: Sequences can lack the tags named with a protein.

Turning to Venus-Myc-SUMO2 (from UniProt P61956), the binding entry in test [1] is “binds”.

B1: VC-Atac2 (protein, UniProt Q8CID0 1-779)
chain: MDSSIHLSGLLSRHDDDATRTSTSEGLEEGEVEGETLLIVESEDQASVDLSHDQSGDSLNSDEGDVSWMEEQLSYFCDKCQKWIPASQLREQLSYLKGDNFFRFTCCDCSADGKEQYERLKLTWQQVVMLAMYNLSLEGSGRQGYFRWKEDICAFIEKHWTFLLGNRKKTSTWWSTVAGCLSVGSPVYFRSGAQEFGEPGWWKLVHNRPPTMRPEGEKLAASTLKVKASKPTLDPIITVEGLRKRASRNPVESAMELKEKRSRTQEAKDIRRAQKEAAGLLDRSTSSTPVKFISRGRRPDLILEKGEVIDFSSLSSSDRTPLTSPSPSPSLDFSAPGTPASHSATPSLLSEADLIPDVMPPQALFHDDDELEGDGVIDPGMEYIPPPAGSASGLLGSRKKVRAPEQIKQEVDSEEEKPDRMDGDSEDTDSNISLHTRAREKRKPPLEKDMKPKGPRYTPVSIYEEKLLLKRLEACPGAVAMTPEARRLKRKLIVRQAKRDRGLPLFDLDEVVNAALLLVDGIYGAKDGGASRLAAGQATYRTTCQDFRILDRYQTALPARKGFRHQTTRFLYRLVGSEDLAVDQSIISPYTSRILKPYIRRDYETKPPKLQLLSQIRSHLHRSDPHWTPGPDAPLDYCYVRPNHIPTINSMCQEFFWPGIDLSECLQYPDFSVVVLYKKVIVAFGFMVPDVKYNEAYISFLLVHPEWRRAGIATFMIYHLIQTCMGKDVTLHVSASNPAMLLYQKFGFKTEEYVLDFYDKYYPLESTECKHAFFLRLRR
B1: the binding entry in test [2] is given as “binds”.
